{"source": "the supplement of paper PMC8728848", "binders": {"B1": {"name": "SHCBP1-GST (Homo sapiens), Q8NEM2 (protein)", "chain": "MADGSLTGGGLEAAAMAPERMGWAVEQELASLEKGLFQDEDSCSDCSYRDKPGSSLQSFMPEGKTFFPEIFQTNQLLFYERFRAYQDYILADCKASEVQEFTAEFLEKVLEPSGWRAVWHTNVFKVLVEITDVDFAALKAVVRLAEPYLCDSQVSTFTMECMKELLDLKEHRLPLQELWVVFDDSGVFDQTALAIEHVRFFYQNIWRSWDEEEEDEYDYFVRCVEPRLRLHYDILEDRVPSGLIVDYHNLLSQCEESYRKFLNLRSSLSNCNSDSEQENISMVEGLKLYSEMEQLKQKLKLIENPLLRYVFGYQKNSNIQAKGVRSSGQKITHVVSSTMMAGLLRSLLTDRLCQEPGEEEREIQFHSDPLSAINACFEGDTVIVCPGHYVVHGTFSIADSIELEGYGLPDDIVIEKRGKGDTFVDCTGADIKISGIKFVQHDAVEGILIVHRGKTTLENCVLQCETTGVTVRTSAEFLMKNSDLYGAKGAGIEIYPGSQCTLSDNGIHHCKEGILIKDFLDEHYDIPKISMVNNIIHNNEGYGVVLVKPTIFSDLQENAEDGTEENKALKIQTSGEPDVAERVDLEELIECATGKMELCARTDPSEQVEGNCEIVNELIAASTQKGQIKKKRLSELGITQADDNLMSQEMFVGIVGNQFKWNGKGSFGTFLF"}}, "assay_in_all_cases": "glycan array binding signal (z-score within array); higher = stronger binding", "conditions_in_all_cases": "glycan notation: IUPAC condensed, linker removed", "key": {"[1]": {"biological_target": "Gal3S(b1-3)[Fuc(a1-4)]GlcNAc", "procedure,_shortened": "(§1)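 Negative Z-scores can be read as non-binding. The Z-score is calculated within each array and then averaged across arrays of one protein sequence at different concentrations or buffers and across linkers. Arrays, 3228 in all, were curated from the Consortium for Functional Glycomics database and kept only where the protein sequence was available.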"}, "[2]": {"biological_target": "Gal3S(b1-4)Glc", "procedure,_shortened": "as §1"}, "[3]": {"biological_target": "Gal3S(b1-4)Glc6S", "procedure,_shortened": "as §1"}, "[4]": {"biological_target": "Gal3S(b1-4)GlcNAc", "procedure,_shortened": "as §1"}, "[5]": {"biological_target": "Gal3S(b1-4)[Fuc(a1-3)]Glc6S", "procedure,_shortened": "as §1"}, "[6]": {"biological_target": "Gal3S(b1-4)[Fuc(a1-3)]GlcNAc", "procedure,_shortened": "as §1"}, "[7]": {"biological_target": "Gal3S(b1-4)[Fuc(a1-3)]GlcNAc6S", "procedure,_shortened": "as §1"}, "[8]": {"biological_target": "Gal3S4S(b1-4)GlcNAc", "procedure,_shortened": "as §1"}, "[9]": {"biological_target": "Gal3S6S(b1-4)GlcNAc", "procedure,_shortened": "as §1"}, "[10]": {"biological_target": "Gal3S6S(b1-4)GlcNAc6S", "procedure,_shortened": "as §1"}, "[11]": {"biological_target": "Gal4S(b1-4)GlcNAc", "procedure,_shortened": "as §1"}, "[12]": {"biological_target": "Gal4S6S(b1-4)GlcNAc", "procedure,_shortened": "as §1"}, "[13]": {"biological_target": "Gal6P(b1-4)GlcNAc", "procedure,_shortened": "as §1"}, "[14]": {"biological_target": "Gal6S(b1-3)GlcNAc", "procedure,_shortened": "as §1"}, "[15]": {"biological_target": "Gal6S(b1-3)GlcNAc6S", "procedure,_shortened": "as §1"}, "[16]": {"biological_target": "Gal6S(b1-4)Glc", "procedure,_shortened": "as §1"}, "[17]": {"biological_target": "Gal6S(b1-4)Glc6S", "procedure,_shortened": "as §1"}, "[18]": {"biological_target": "Gal6S(b1-4)GlcNAc", "procedure,_shortened": "as §1"}, "[19]": {"biological_target": "Gal6S(b1-4)GlcNAc6S", "procedure,_shortened": "as §1"}, "[20]": {"biological_target": "GalNAc(a1-3)Gal", "procedure,_shortened": "as §1"}, "[21]": {"biological_target": "GalNAc(a1-3)GalNAc", "procedure,_shortened": "as §1"}, "[22]": {"biological_target": "GalNAc(a1-3)GalNAc(b1-3)Gal(a1-4)Gal(b1-4)Glc", "procedure,_shortened": "as §1"}, "[23]": {"biological_target": "GalNAc(a1-3)GalNAc(b1-3)Gal(a1-4)Gal(b1-4)GlcNAc", "procedure,_shortened": "as §1"}, "[24]": {"biological_target": "GalNAc(b1-3)Gal", "procedure,_shortened": "as §1"}, "[25]": {"biological_target": "GalNAc(b1-3)Gal(a1-4)Gal(b1-4)GlcNAc", "procedure,_shortened": "as §1"}, "[26]": {"biological_target": "GalNAc(b1-3)Gal(a1-4)Gal(b1-4)GlcNAc(b1-3)Gal(b1-4)Glc", "procedure,_shortened": "as §1"}, "[27]": {"biological_target": "GalNAc(b1-3)Gal(a1-6)Gal(b1-4)Glc", "procedure,_shortened": "as §1"}, "[28]": {"biological_target": "GalNAc(b1-3)GalNAc", "procedure,_shortened": "as §1"}, "[29]": {"biological_target": "GalNAc(b1-3)GlcNAc", "procedure,_shortened": "as §1"}, "[30]": {"biological_target": "GalNAc(b1-4)Gal(b1-4)Glc", "procedure,_shortened": "as §1"}}, "note": "This is one part of the list.", "data": [{"binder": "B1", "values": [{"measurement": "glycan array binding signal (z-score)", "setting": "[1]", "result": 0.036}, {"measurement": "glycan array binding signal (z-score)", "setting": "[2]", "result": 0.623}, {"measurement": "glycan array binding signal (z-score)", "setting": "[3]", "result": 0.663}, {"measurement": "glycan array binding signal (z-score)", "setting": "[4]", "result": 0.013}, {"measurement": "glycan array binding signal (z-score)", "setting": "[5]", "result": 0.287}, {"measurement": "glycan array binding signal (z-score)", "setting": "[6]", "result": -0.294}, {"measurement": "glycan array binding signal (z-score)", "setting": "[7]", "result": -0.428}, {"measurement": "glycan array binding signal (z-score)", "setting": "[8]", "result": -0.52}, {"measurement": "glycan array binding signal (z-score)", "setting": "[9]", "result": 0.69}, {"measurement": "glycan array binding signal (z-score)", "setting": "[10]", "result": 0.489}, {"measurement": "glycan array binding signal (z-score)", "setting": "[11]", "result": -0.617}, {"measurement": "glycan array binding signal (z-score)", "setting": "[12]", "result": 0.332}, {"measurement": "glycan array binding signal (z-score)", "setting": "[13]", "result": -0.929}, {"measurement": "glycan array binding signal (z-score)", "setting": "[14]", "result": -0.576}, {"measurement": "glycan array binding signal (z-score)", "setting": "[15]", "result": -0.306}, {"measurement": "glycan array binding signal (z-score)", "setting": "[16]", "result": -0.03}, {"measurement": "glycan array binding signal (z-score)", "setting": "[17]", "result": -0.018}, {"measurement": "glycan array binding signal (z-score)", "setting": "[18]", "result": -0.413}, {"measurement": "glycan array binding signal (z-score)", "setting": "[19]", "result": -0.431}, {"measurement": "glycan array binding signal (z-score)", "setting": "[20]", "result": 0.085}, {"measurement": "glycan array binding signal (z-score)", "setting": "[21]", "result": -0.406}, {"measurement": "glycan array binding signal (z-score)", "setting": "[22]", "result": -0.799}, {"measurement": "glycan array binding signal (z-score)", "setting": "[23]", "result": -1.12}, {"measurement": "glycan array binding signal (z-score)", "setting": "[24]", "result": -0.294}, {"measurement": "glycan array binding signal (z-score)", "setting": "[25]", "result": 1.78}, {"measurement": "glycan array binding signal (z-score)", "setting": "[26]", "result": -0.031}, {"measurement": "glycan array binding signal (z-score)", "setting": "[27]", "result": -0.174}, {"measurement": "glycan array binding signal (z-score)", "setting": "[28]", "result": -0.386}, {"measurement": "glycan array binding signal (z-score)", "setting": "[29]", "result": -0.625}, {"measurement": "glycan array binding signal (z-score)", "setting": "[30]", "result": -0.343}]}]}
